# Data taken from US7138236.
# By UniProt entry, the sequences of proteins in these tests, tags left out. Chains listed by the source or under a name are the forms on record and can include a tag or linker. Residues count along the entry.
# UniProt P08047, 2-785: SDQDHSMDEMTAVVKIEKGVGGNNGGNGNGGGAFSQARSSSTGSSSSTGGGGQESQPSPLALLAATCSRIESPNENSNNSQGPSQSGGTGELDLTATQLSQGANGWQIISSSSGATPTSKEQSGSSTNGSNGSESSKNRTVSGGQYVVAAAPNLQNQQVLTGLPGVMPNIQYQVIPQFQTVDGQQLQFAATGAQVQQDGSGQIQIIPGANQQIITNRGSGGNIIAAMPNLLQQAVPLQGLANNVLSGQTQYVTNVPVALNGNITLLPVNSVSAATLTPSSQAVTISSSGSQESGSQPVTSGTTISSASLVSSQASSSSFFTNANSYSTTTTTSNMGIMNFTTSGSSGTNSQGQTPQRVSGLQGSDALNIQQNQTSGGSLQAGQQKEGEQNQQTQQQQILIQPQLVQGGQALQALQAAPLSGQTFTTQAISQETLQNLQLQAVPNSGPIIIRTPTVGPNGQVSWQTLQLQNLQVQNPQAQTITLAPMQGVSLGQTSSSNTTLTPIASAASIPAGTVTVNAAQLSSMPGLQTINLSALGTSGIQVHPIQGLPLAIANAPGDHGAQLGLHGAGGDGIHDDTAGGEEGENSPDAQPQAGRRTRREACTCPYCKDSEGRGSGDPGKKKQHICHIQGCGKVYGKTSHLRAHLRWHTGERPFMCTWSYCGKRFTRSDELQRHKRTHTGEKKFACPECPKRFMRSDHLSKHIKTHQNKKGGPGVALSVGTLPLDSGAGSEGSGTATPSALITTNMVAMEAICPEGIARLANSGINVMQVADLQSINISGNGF
# UniProt P78527, other isoform, or with tags, fused parts or gaps: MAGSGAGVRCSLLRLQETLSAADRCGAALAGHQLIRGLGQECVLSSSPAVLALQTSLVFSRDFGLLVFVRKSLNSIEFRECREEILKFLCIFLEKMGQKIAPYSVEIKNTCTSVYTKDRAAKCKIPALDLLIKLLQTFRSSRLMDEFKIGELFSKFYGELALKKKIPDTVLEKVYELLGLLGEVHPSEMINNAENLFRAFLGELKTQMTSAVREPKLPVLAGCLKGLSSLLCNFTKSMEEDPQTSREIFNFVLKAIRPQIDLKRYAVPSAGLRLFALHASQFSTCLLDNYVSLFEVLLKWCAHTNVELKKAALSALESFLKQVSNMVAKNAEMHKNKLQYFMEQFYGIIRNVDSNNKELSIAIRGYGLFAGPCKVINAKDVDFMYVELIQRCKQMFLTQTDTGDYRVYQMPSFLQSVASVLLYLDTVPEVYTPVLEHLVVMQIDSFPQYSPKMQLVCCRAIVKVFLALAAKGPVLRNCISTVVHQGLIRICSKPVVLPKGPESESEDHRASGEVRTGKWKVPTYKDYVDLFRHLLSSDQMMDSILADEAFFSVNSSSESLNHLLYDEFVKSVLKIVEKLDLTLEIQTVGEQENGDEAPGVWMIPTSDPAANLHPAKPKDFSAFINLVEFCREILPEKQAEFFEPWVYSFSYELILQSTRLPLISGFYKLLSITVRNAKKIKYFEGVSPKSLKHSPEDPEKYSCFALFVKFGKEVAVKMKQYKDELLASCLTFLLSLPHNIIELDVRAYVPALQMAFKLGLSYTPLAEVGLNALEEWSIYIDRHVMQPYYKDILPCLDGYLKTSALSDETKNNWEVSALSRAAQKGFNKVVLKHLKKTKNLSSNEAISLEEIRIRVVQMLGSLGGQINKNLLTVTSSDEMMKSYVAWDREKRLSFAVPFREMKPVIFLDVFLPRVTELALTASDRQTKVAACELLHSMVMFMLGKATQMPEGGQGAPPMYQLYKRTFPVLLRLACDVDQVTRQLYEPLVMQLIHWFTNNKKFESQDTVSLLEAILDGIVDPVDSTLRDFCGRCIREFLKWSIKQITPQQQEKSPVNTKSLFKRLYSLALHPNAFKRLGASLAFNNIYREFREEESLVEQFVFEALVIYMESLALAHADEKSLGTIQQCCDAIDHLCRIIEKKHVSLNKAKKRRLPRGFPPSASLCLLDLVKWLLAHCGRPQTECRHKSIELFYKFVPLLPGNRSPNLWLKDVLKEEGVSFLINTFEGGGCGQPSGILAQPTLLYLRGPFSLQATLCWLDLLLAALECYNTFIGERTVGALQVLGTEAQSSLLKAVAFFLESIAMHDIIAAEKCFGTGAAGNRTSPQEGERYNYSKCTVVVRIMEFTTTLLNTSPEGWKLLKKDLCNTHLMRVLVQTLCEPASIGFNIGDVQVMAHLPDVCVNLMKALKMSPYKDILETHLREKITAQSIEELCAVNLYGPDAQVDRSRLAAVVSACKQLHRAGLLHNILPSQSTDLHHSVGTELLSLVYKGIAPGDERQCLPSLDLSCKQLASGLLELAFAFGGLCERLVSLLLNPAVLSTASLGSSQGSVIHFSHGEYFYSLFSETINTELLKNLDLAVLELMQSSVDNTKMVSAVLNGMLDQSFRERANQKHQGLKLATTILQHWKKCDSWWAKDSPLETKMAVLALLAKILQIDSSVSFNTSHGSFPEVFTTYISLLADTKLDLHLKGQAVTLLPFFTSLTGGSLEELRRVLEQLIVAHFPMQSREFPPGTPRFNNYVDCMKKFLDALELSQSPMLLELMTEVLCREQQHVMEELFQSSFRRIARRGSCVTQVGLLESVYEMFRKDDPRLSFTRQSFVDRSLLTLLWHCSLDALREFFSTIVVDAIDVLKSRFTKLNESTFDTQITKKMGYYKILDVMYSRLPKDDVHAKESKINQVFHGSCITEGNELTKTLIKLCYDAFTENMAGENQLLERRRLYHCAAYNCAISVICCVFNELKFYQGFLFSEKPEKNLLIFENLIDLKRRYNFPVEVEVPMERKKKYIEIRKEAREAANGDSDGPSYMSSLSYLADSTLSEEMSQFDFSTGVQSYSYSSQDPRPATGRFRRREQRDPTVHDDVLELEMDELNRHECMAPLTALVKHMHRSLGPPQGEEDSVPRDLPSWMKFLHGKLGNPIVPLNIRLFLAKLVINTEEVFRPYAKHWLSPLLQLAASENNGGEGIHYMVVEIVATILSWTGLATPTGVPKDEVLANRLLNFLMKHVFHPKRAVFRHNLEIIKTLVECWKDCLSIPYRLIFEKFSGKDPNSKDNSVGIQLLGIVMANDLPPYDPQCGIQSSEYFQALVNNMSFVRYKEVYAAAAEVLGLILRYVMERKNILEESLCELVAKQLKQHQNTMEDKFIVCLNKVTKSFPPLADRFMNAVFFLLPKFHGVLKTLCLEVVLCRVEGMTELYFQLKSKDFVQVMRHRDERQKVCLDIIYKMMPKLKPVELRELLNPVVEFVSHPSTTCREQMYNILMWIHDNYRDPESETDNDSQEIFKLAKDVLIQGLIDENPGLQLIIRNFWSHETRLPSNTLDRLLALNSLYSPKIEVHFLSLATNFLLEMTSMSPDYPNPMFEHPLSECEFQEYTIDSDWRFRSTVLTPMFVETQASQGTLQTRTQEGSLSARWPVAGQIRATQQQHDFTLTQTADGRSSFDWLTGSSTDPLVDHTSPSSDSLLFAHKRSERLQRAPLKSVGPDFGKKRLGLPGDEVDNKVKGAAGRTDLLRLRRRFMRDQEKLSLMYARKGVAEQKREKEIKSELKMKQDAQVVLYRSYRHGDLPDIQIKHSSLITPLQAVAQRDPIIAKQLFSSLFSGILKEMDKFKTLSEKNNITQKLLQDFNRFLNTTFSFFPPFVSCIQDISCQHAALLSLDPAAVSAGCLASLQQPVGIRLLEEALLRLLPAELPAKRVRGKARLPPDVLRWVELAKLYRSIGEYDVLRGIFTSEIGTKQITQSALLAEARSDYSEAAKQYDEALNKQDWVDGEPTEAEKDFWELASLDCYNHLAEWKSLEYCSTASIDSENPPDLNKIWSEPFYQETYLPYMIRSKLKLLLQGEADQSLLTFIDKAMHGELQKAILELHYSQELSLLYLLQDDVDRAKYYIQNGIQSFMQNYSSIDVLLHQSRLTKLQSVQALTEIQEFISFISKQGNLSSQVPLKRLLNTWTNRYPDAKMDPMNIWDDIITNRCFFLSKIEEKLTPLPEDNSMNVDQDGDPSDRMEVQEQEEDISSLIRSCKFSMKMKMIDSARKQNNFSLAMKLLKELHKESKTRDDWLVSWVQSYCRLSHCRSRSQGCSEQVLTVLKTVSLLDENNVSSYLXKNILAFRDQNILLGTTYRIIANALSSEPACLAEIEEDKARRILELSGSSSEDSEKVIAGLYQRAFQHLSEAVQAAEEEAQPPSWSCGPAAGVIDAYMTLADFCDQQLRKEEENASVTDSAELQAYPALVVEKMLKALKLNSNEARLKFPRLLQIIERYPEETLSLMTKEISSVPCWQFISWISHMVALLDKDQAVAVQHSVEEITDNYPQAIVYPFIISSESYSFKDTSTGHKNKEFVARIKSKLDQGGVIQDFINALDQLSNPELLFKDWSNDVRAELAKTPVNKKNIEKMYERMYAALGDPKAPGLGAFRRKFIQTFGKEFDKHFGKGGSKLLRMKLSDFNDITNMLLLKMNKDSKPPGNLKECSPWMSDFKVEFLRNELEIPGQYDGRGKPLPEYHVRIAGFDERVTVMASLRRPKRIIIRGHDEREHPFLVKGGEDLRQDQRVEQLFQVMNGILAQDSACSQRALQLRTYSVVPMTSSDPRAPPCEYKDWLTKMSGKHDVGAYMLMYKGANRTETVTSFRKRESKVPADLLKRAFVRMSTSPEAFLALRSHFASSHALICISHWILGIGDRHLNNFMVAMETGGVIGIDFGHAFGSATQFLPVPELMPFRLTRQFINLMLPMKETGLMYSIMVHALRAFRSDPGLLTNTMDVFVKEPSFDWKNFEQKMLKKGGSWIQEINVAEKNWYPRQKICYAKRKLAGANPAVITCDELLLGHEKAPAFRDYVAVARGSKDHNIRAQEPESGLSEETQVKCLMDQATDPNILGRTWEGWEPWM
# For at least one entry, the source does not settle the construct or the ends of the probe. Results from cells or extracts need not show a direct contact. For part of these data: A negative result means that nothing was seen under these conditions. For part of these data: A weaker result is weaker than the reference pair of the same experiment.
# Assays:
# Experiment in all cases: pull-down
# [1] = target: ATM (Homo sapiens) (UniProt Q13315); settings: protein in an extract
# [2] = test system: RNA polymerase II (Homo sapiens); settings: no stable interaction with random 50-mer; protein in an extract; protein details: native complex, HeLa nuclear extract; label: 5' biotin on SEQ:16
# [3] = target: Sp1 (Homo sapiens) (UniProt P08047); settings: no stable interaction with random 50-mer; protein in an extract; protein details: native, HeLa nuclear extract; label: 5' biotin on SEQ:16
# [4] = target: DNA-PKcs (with Ku present in extract) (Homo sapiens) (UniProt P78527); settings: binds only very inefficiently; data not shown; protein in an extract; protein details: native, HeLa nuclear extract; label: 5' biotin on SEQ:16
# [5] = equal efficiency to fully ds DNA, label: 5' biotin on SEQ:21, folded or branched DNA
sequence,measurement,setting,value
CCTGCCCTTGCCTGA (double strand) [ds 15-mer],binding result,"[1]; some ATM unbound, most bound elutes in lower salt wash, label: 5' biotin on SEQ:12",binds more weakly
CCTGCCCTTGCCTGACGCTATTAGT (double strand) [ds 25-mer],binding result,"[1]; binding increases progressively with duplex length, label: 5' biotin on SEQ:14",binds
CCTGCCCTTGCCTGACGCTATTAGTTCATCTATTTGTTTTGCTAATTCGATTGGAATCGAAACGGTCACATATTCTTTTTTGACTGATTTCCTCGGCATA / TATGCCGAGGAAATCAGTCAAAAAAGAATATGTGACCGTTTCGAATTAGCAAAACAAATAGATGAACTAATAGCGTCAGGCAAGGGCAGG [10 bp insertion DYNO+DAM6],binding result,[1]; [5],binds
CCTGCCCTTGCCTGACGCTATTAGTTCATCTATTTGTTTTGCTAATTCGATTGGAATCGAAACGGTCACATATTCTTTTTTGACTGATTTCCTCGGCATA / TATGCCGAGGAAATCAGTCAAAAAAGAATATGTGACCGTTTCGATTCCAA / TCGAATTAGCAAAACAAATAGATGAACTAATAGCGTCAGGCAAGGGCAGG [nicked oligo DYNO+DAM2+DAM3],binding result,[1]; [5],binds
CCTGCCCTTGCCTGACGCTATTAGTTCATCTATTTGTTTTGCTAATTCGATTGGAATCGAAACGGTCACATATTCTTTTTTGACTGATTTCCTCGGCATA / TCGAATTAGCAAAACAAATAGATGAACTAATAGCGTCAGGCAAGGGCAGG / TATGCCGAGGAAATC [gapped ds oligo DYNO+DAM3+DAM5],binding result,[1]; [5],binds
CCTGCCCTTGCCTGACGCTATTAGTTCATCTATTTGTTTTGCTAATTCGATTGGAATCGAAACGGTCACATATTCTTTTTTGACTGATTTCCTCGGCATA / TCGAATTAGCAAAACAAATAGATGAACTAATAGCGTCAGGCAAGGGCAGG [ds/ss transition DYNO+DAM3],binding result,[1]; [5],binds
GATCGAATCCGATAGAGTATAGATAGAGTAAAGTTTAAATACTTATATAGATAGAGTATAGATAGAGGGTTCAAA (double strand) [ds 75-mer],binding result,"[1]; almost quantitative, elutes in higher salt wash, label: 5' biotin on SEQ:18",binds
TTGTAAAACGACGGCCAGTGAATTCATCATCAATAATATACCTTATTTTG (double strand) [ds 50-mer],binding result,"[1]; over 90% of ATM bound, binding almost quantitative, bound in 50 mM KCl, elutes at 500 mM KCl, label: 5' biotin on SEQ:16",binds
same,binding result,[2],no binding
same,binding result,[3],no binding
same,binding result,[4],binds more weakly
TTGTAAAACGACGGCCAGTGAATTCATCATCAATAATATACCTTATTTTG [ss 50-mer],binding result,"[1]; binds effectively to ssDNA, 50 mM KCl, label: 5' biotin, single-stranded DNA",binds
